Laboratory results published in article PMC8956265.
Read-outs that look alike come from different tables or passages of the source. Results are given in words; binding and its absence hold for the method and conditions named. Binding seen in cells or lysates may run through a third protein. Here binding means that the protein was enriched with, or labelled near, the bait; the list need not be complete.

By UniProt entry, the sequences of proteins in these tests, tags left out.
UniProt Q9UJW3: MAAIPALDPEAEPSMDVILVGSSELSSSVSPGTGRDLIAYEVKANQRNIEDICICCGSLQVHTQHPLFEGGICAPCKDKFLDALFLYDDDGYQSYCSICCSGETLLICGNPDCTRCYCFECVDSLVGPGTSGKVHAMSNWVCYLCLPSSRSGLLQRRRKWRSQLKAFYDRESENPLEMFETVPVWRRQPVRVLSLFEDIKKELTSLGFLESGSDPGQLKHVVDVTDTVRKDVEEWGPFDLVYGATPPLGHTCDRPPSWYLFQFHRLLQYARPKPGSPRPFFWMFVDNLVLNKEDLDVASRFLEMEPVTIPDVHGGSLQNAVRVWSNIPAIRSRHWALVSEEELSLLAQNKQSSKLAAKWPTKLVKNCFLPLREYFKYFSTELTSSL
UniProt Q02539: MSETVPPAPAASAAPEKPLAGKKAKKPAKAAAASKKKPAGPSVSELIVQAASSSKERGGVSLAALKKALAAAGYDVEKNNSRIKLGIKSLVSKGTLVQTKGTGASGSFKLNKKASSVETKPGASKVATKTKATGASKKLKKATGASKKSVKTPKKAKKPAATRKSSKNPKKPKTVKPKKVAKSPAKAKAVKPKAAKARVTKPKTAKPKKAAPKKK

Legend:
[1] = molecular target: T1, PCGF3 (human (endogenous in human PSCs)) (UniProt Q3KNV8); experiment: affinity purification with mass spectrometry; qPLEX-RIME: cells cross-linked with di(N-succinimidyl) glutarate and paraformaldehyde, chromatin sonicated, anti-PCGF3+5 antibody on Protein A beads, 10 washes in RIPA with 500 mM LiCl, TMT mass spectrometry; naïve, 48-hour 5i/L/A and primed PSCs; control primed PSCs lacking PCGF3 and PCGF5
T1 sequence: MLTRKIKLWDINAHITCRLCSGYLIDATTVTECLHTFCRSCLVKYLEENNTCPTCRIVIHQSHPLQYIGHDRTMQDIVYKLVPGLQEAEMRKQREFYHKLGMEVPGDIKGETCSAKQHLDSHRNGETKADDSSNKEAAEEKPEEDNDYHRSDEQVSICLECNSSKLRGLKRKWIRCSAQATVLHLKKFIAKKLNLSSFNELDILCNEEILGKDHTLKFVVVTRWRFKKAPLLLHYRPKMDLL

[2] = molecular target: T1, PCGF3 (human (endogenous in human PSCs)); experiment: as above; remark: listed apart in the source

DNA methyltransferase regulator DNMT3L (from UniProt Q9UJW3 1-386)
binding [1]: binds

linker DNA binding histone protein HISTH1.1 (from UniProt Q02539 1-215)
binding [1]: binds

B1: Activator of transcription and developmental regulator (AUTS2) (protein, UniProt Q8WXX7 1-1259)
chain: MDGPTRGHGLRKKRRSRSQRDRERRSRGGLGAGAAGGGGAGRTRALSLASSSGSDKEDNGKPPSSAPSRPRPPRRKRRESTSAEEDIIDGFAMTSFVTFEALEKDVALKPQERVEKRQTPLTKKKREALTNGLSFHSKKSRLSHPHHYSSDRENDRNLCQHLGKRKKMPKALRQLKPGQNSCRDSDSESASGESKGFHRSSSRERLSDSSAPSSLGTGYFCDSDSDQEEKASDASSEKLFNTVIVNKDPELGVGTLPEHDSQDAGPIVPKISGLERSQEKSQDCCKEPIFEPVVLKDPCPQVAQPIPQPQTEPQLRAPSPDPDLVQRTEAPPQPPPLSTQPPQGPPEAQLQPAPQPQVQRPPRPQSPTQLLHQNLPPVQAHPSAQSLSQPLSAYNSSSLSLNSLSSSRSSTPAKTQPAPPHISHHPSASPFPLSLPNHSPLHSFTPTLQPPAHSHHPNMFAPPTALPPPPPLTSGSLQVAGHPAGSTYSEQDILRQELNTRFLASQSADRGASLGPPPYLRTEFHQHQHQHQHTHQHTHQHTFTPFPHAIPPTAIMPTPAPPMFDKYPTKVDPFYRHSLFHSYPPAVSGIPPMIPPTGPFGSLQGAFQPKTSNPIDVAARPGTVPHTLLQKDPRLTDPFRPMLRKPGKWCAMHVHIAWQIYHHQQKVKKQMQSDPHKLDFGLKPEFLSRPPGPSLFGAIHHPHDLARPSTLFSAAGAAHPTGTPFGPPPHHSNFLNPAAHLEPFNRPSTFTGLAAVGGNAFGGLGNPSVTPNSMFGHKDGPSVQNFSNPHEPWNRLHRTPPSFPTPPPWLKPGELERSASAAAHDRDRDVDKRDSSVSKDDKERESVEKRHSSHPSPAPVLPVNALGHTRSSTEQIRAHLNTEAREKDKPKERERDHSESRKDLAADEHKAKEGHLPEKDGHGHEGRAAGEEAKQLARVPSPYVRTPVVESARPNSTSSREAEPRKGEPAYENPKKSSEVKVKEERKEDHDLPPEAPQTHRASEPPPPNSSSSVHPGPLASMPMTVGVTGIHPMNSISSLDRTRMMTPFMGISPLPGGERFPYPSFHWDPIRDPLRDPYRELDIHRRDPLGRDFLLRNDPLHRLSTPRLYEADRSFRDREPHDYSHHHHHHHHPLSVDPRREHERGGHLDERERLHMLREDYEHTRLHSVHPASLDGHLPHPSLITPGLPSMHYPRISPTAGNQNGLLNKTPPTAALSAPPPLISTLGGRPVSPRRTTPLSAEIRERPPSHTLKDIEAR
binding [2]: binds

B2: Fibrosin (FBRS) (protein, UniProt Q9HAH7 1-460)
chain: MFEKYPGKMEGLFRHNPYTAFPPAVPGLPPGLPPAVSFGSLQGAFQPKSTNPELPPRLGPVPSGLSQKGTQIPDHFRPPLRKPGKWCAMHVRVAYMILRHQEKMKGDSHKLDFRNDLLPCLPGPYGALPPGQELSHPASLFTATGAVHAAANPFTAAPGAHGPFLSPSTHIDPFGRPTSFASLAALSNGAFGGLGSPTFNSGAVFAQKESPGAPPAFASPPDPWGRLHRSPLTFPAWVRPPEAARTPGSDKERPVERREPSITKEEKDRDLPFSRPQLRVSPATPKARAGEEGPRPTKESVRVKEERKEEAAAAAAAAAAAAAAAAAAATGPQGLHLLFERPRPPPFLGPSPPDRCAGFLEPTWLAAPPRLARPPRFYEAGEELTGPGAVAAARLYGLEPAHPLLYSRLAPPPPPAAAPGTPHLLSKTPPGALLGAPPPLVPAPRPSSPPRGPGPARADR
binding [2]: binds

B3: PR/SET domain 14 (PRDM14) (protein, UniProt Q9GZV8 1-571)
chain: MALPRPSEAVPQDKVCYPPESSPQNLAAYYTPFPSYGHYRNSLATVEEDFQPFRQLEAAASAAPAMPPFPFRMAPPLLSPGLGLQREPLYDLPWYSKLPPWYPIPHVPREVPPFLSSSHEYAGASSEDLGHQIIGGDNESGPCCGPDTLIPPPPADASLLPEGLRTSQLLPCSPSKQSEDGPKPSNQEGKSPARFQFTEEDLHFVLYGVTPSLEHPASLHHAISGLLVPPDSSGSDSLPQTLDKDSLQLPEGLCLMQTVFGEVPHFGVFCSSFIAKGVRFGPFQGKVVNASEVKTYGDNSVMWEIFEDGHLSHFIDGKGGTGNWMSYVNCARFPKEQNLVAVQCQGHIFYESCKEIHQNQELLVWYGDCYEKFLDIPVSLQVTEPGKQPSGPSEESAEGYRCERCGKVFTYKYYRDKHLKYTPCVDKGDRKFPCSLCKRSFEKRDRLRIHILHVHEKHRPHKCSTCGKCFSQSSSLNKHMRVHSGDRPYQCVYCTKRFTASSILRTHIRQHSGEKPFKCKYCGKSFASHAAHDSHVRRSHKEDDGCSCSICGKIFSDQETFYSHMKFHEDY
binding [2]: binds
